Experimental findings from paper PMC7252619 (PLoS ONE, 2020) are described below.

One series concerns RPMI1788 cells. Briefly: WST-1 cytotoxicity assay on RPMI1788 cells (B-cell line). It is filed as cell-based, human. The conditions noted are these: for B-cell TI: ratio IC50 WST-1 assay RPMI1788/IC50 B-cell assay; for Therapeutic Index (TI) WST-1 RPMI 1788/B-cell: ratio of IC50 values. A general note: Tetrazolium assays rely on reduction of a dye to a coloured formazan, in cell work by metabolically active cells.

The next series deals with Jurkat cells. Briefly: WST-1 cytotoxicity assay on Jurkat cells (T-cell line). The class given is cell-based, human. The conditions noted are these: for T-cell TI: ratio IC50 WST-1 assay Jurkat/IC50 B-cell assay; for Therapeutic Index (TI) WST-1 Jurkat/ B-cell: ratio of IC50 values.
Series [1] deals with human PBMCs (responder cells) with RPMI1788 stimulator cells. Kind of series: Mixed Lymphocyte Reaction (MLR, T cell assay), 3H-thymidine incorporation. It is filed as cell-based. The conditions noted are these: for T/B-cell SI: ratio IC50 MLR assay/IC50 B-cell assay. (In general: Uptake of a labelled nucleoside into DNA is a usual measure of proliferation.)

With `CN1CCN(CCCN2c3ccccc3Sc3ccc(Cl)cc32)CC1` [Prochlorperazine, reference compound], in the series with RPMI1788 cells, the “B-cell TI” value was 1,67.

On to `C=CC(=O)N1CCC[C@@H](n2nc(-c3ccc(Oc4ccccc4)cc3)c3c(N)ncnc32)C1` [Ibrutinib, reference compound], for which the “T-cell TI” value in the series on Jurkat cells amounted to 81090. Moreover, in the series with RPMI1788 cells, the “B-cell TI” value was 3856.

`C[C@@H]1CCN(C(=O)CC#N)C[C@@H]1N(C)c1ncnc2[nH]ccc12` [Tofacitinib]: the “T-cell TI” value with Jurkat cells is given as >115,6.

As to `COc1c(C)c2c(c(O)c1C/C=C(\C)CCC(=O)OCCN1CCOCC1)C(=O)OC2` [Mycophenolate Mofetyl], the “Selectivity Index (SI) MLR/B-cell” value in series [1] (ratio of IC50 values) is listed as 0.17. The “Therapeutic Index (TI) WST-1 Jurkat/ B-cell” value in the series with Jurkat cells amounted to 0.76. Also, in the series on RPMI1788 cells, the “Therapeutic Index (TI) WST-1 RPMI 1788/B-cell” value is 0.67.

As to `Nc1ccc2cc3ccc(N)cc3nc2c1` [Proflavine], the “T/B-cell SI” value in series [1] is given as 7,50. Further, in the series on Jurkat cells, the “T-cell TI” value is given as 8,55 and the “Therapeutic Index (TI) WST-1 Jurkat/ B-cell” value was determined as 8.55. In the series on RPMI1788 cells, the “B-cell TI” value is reported as 5,14 and the “Therapeutic Index (TI) WST-1 RPMI 1788/B-cell” value amounted to 5.14.

As for `C[C@]12CC[C@@H]3c4ccc(O)cc4CC[C@H]3[C@@H]1CC[C@@H]2O` [Estradiol, reference compound], the “T/B-cell SI” value in series [1] is 0,62. In addition, in the series on Jurkat cells, the “T-cell TI” value is on record as 0,58 and the “Therapeutic Index (TI) WST-1 Jurkat/ B-cell” value is listed as 0.58. Moreover, in the series with RPMI1788 cells, the “B-cell TI” value is on record as 1,06 and the “Therapeutic Index (TI) WST-1 RPMI 1788/B-cell” value is on record as 1.06.

In the case of `N[C@@H](Cc1cc(I)c(Oc2ccc(O)c(I)c2)c(I)c1)C(=O)O` [Triiodothyronine], in the series with Jurkat cells, the “T-cell TI” value is recorded as >1,36. Besides, the “B-cell TI” value in the series on RPMI1788 cells is listed as >1,36.

Turning to `CCN(CC)Cc1cc(Nc2ccnc3cc(Cl)ccc23)ccc1O` [Amodiaquine], the “T/B-cell SI” value in series [1] was 14,73. Also, in the series with Jurkat cells, the “T-cell TI” value was 39,43 and the “Therapeutic Index (TI) WST-1 Jurkat/ B-cell” value amounted to 39.43. Also, in the series on RPMI1788 cells, the “B-cell TI” value was 42,33 and the “Therapeutic Index (TI) WST-1 RPMI 1788/B-cell” value came to 42.33.

As to `Cc1nc(Nc2ncc(C(=O)Nc3c(C)cccc3Cl)s2)cc(N2CCN(CCO)CC2)n1` [Dasatinib, reference compound], the “T-cell TI” value in the series with Jurkat cells was 160,0.

Turning to `CC/C(=C(/CC)c1ccc(O)cc1)c1ccc(O)cc1` [Diethylstilbestrol, reference compound], the “T-cell TI” value in the series on Jurkat cells is reported as 0,22. In the series on RPMI1788 cells, the “B-cell TI” value is on record as 1,01.

For `NC(=O)c1cccnc1` [Niacinamide, reference compound], the “T/B-cell SI” value in series [1] is on record as 1,00. Besides, in the series on Jurkat cells, the “T-cell TI” value is listed as 1,00 and the “Therapeutic Index (TI) WST-1 Jurkat/ B-cell” value was 1. Further, in the series on RPMI1788 cells, the “B-cell TI” value is reported as 1,00 and the “Therapeutic Index (TI) WST-1 RPMI 1788/B-cell” value worked out at 1.

In the case of `Oc1cc(Cl)ccc1Oc1ccc(Cl)cc1Cl` [Triclosan, reference compound], the “T/B-cell SI” value in series [1] is 1.64. Also, in the series on Jurkat cells, the “T-cell TI” value is 1,25 and the “Therapeutic Index (TI) WST-1 Jurkat/ B-cell” value is listed as 1.25. In the series on RPMI1788 cells, the “B-cell TI” value is recorded as 1.32 and the “Therapeutic Index (TI) WST-1 RPMI 1788/B-cell” value is given as 1.32.

As for `Oc1c(Cl)cc(Cl)c(Cl)c1Cc1c(O)c(Cl)cc(Cl)c1Cl` [Hexachlorophene, reference compound], in the series with Jurkat cells, the “T-cell TI” value is 1,10. For the same compound, the “B-cell TI” value in the series on RPMI1788 cells is given as 0,79.

Consider `Cc1cc(C#N)cc(C)c1Oc1nc(Nc2ccc(C#N)cc2)nc(N)c1Br` [Etravirine], for which the “T/B-cell SI” value in series [1] was 1,23. In the series on Jurkat cells, the “T-cell TI” value was 5,15 and the “Therapeutic Index (TI) WST-1 Jurkat/ B-cell” value is reported as 5.15. Further, in the series with RPMI1788 cells, the “B-cell TI” value is 1,35 and the “Therapeutic Index (TI) WST-1 RPMI 1788/B-cell” value is listed as 1.35.

Take `Cc1ccc(C(=O)Nc2ccc(S(=O)(=O)O)c3cc(S(=O)(=O)O)cc(S(=O)(=O)O)c23)cc1NC(=O)c1cccc(NC(=O)Nc2cccc(C(=O)Nc3cc(C(=O)Nc4ccc(S(=O)(=O)O)c5cc(S(=O)(=O)O)cc(S(=O)(=O)O)c45)ccc3C)c2)c1` [Suramin]: in series [1], the “T/B-cell SI” value is given as 0,84. Moreover, in the series on Jurkat cells, the “T-cell TI” value is >1,42 and the “Therapeutic Index (TI) WST-1 Jurkat/ B-cell” value is reported as greater than 1.42. For the same compound, in the series with RPMI1788 cells, the “B-cell TI” value is listed as >1,42 and the “Therapeutic Index (TI) WST-1 RPMI 1788/B-cell” value is greater than 1.42.

For the compound `Nc1ncnc2c1ncn2[C@@H]1O[C@H](CO)[C@@H](O)[C@H]1O` [Adenosine, reference compound], the “T/B-cell SI” value in series [1] was 1,00. Besides, in the series on Jurkat cells, the “T-cell TI” value was 1,00 and the “Therapeutic Index (TI) WST-1 Jurkat/ B-cell” value was 1. Besides, in the series on RPMI1788 cells, the “B-cell TI” value is recorded as 1,00 and the “Therapeutic Index (TI) WST-1 RPMI 1788/B-cell” value came to 1.

With `N[C@@H](Cc1cc(I)c(Oc2cc(I)c(O)c(I)c2)c(I)c1)C(=O)O` [Thyroxine, reference compound], the “T/B-cell SI” value in series [1] was >1,47. For the same compound, the “Therapeutic Index (TI) WST-1 Jurkat/ B-cell” value with Jurkat cells was greater than 1.47. Also, in the series on RPMI1788 cells, the “Therapeutic Index (TI) WST-1 RPMI 1788/B-cell” value is listed as greater than 1.47.
